Experimental data as given in publication PMC7052939.
Results are given in words; binding and its absence hold for the method and conditions named. Binding seen in cells or lysates may run through a third protein. Some binding calls cover weakened binding; strength is not graded here.

Protein sequences, listed by entry. Tags and fused reporters are not part of them. Residues count along the entry.
UniProt P16144, residues 28-1822: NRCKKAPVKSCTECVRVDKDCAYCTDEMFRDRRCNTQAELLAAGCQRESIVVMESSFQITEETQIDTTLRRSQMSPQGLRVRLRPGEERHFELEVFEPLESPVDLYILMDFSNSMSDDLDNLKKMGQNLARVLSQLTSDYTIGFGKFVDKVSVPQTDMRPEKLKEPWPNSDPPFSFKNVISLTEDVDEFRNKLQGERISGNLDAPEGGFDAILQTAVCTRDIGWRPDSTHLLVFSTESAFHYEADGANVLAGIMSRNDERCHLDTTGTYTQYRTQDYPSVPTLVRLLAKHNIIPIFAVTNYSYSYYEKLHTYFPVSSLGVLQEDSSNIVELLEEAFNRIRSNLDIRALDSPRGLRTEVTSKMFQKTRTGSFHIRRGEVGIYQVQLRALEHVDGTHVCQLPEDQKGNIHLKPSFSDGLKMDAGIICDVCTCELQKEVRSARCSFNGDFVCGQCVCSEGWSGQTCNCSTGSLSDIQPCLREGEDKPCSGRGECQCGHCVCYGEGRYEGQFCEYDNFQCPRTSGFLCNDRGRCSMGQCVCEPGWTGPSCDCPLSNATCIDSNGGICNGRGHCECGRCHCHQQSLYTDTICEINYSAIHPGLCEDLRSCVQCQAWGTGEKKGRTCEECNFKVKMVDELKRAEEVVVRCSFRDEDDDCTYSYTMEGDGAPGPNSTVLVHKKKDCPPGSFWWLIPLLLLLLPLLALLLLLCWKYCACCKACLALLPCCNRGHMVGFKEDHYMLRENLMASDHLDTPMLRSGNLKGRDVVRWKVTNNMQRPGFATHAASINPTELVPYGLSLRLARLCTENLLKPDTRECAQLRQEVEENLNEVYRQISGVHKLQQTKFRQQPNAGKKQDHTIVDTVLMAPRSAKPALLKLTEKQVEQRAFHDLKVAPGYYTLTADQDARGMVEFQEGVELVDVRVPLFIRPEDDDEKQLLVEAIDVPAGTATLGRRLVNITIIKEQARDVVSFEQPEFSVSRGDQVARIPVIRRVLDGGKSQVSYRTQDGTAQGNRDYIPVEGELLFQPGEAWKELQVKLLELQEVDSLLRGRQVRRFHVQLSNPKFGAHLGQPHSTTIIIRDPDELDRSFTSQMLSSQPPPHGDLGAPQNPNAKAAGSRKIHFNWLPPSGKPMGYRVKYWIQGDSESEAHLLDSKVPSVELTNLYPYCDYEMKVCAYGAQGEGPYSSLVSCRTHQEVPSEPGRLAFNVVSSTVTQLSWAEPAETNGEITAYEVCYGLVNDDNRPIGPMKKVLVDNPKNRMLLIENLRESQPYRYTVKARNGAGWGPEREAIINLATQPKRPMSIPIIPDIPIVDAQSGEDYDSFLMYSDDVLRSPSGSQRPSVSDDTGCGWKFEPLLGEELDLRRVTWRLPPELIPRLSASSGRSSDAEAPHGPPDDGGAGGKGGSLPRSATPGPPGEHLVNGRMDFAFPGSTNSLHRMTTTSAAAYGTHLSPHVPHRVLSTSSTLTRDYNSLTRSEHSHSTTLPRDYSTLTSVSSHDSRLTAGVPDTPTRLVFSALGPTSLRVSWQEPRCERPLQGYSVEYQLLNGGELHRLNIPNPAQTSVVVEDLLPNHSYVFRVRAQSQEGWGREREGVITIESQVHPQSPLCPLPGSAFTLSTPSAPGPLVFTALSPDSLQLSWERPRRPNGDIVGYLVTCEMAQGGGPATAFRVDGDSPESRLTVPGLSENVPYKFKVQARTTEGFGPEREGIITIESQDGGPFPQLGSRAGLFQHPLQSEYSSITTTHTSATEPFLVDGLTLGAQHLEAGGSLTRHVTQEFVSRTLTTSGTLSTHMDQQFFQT
UniProt P05556: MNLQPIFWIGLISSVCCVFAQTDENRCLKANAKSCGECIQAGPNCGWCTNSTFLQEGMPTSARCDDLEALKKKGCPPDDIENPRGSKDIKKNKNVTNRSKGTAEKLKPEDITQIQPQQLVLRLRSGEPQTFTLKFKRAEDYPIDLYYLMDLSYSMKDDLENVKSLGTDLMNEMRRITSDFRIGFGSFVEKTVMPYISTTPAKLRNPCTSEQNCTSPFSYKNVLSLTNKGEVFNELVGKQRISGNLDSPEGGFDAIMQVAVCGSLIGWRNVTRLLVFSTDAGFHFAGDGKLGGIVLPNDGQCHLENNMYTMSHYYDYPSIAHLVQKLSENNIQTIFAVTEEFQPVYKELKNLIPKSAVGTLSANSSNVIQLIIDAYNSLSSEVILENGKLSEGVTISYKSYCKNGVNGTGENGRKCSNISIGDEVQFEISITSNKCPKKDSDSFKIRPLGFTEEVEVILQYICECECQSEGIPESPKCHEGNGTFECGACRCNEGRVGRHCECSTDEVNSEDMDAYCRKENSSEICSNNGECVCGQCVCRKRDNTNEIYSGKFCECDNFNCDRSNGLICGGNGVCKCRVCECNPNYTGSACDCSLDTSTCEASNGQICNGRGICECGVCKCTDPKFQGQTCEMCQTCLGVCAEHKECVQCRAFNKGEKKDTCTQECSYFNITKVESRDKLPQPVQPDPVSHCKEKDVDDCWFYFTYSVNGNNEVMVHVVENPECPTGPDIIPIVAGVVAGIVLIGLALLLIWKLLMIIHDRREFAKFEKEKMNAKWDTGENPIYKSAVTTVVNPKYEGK
UniProt P02751, residues 32-2477: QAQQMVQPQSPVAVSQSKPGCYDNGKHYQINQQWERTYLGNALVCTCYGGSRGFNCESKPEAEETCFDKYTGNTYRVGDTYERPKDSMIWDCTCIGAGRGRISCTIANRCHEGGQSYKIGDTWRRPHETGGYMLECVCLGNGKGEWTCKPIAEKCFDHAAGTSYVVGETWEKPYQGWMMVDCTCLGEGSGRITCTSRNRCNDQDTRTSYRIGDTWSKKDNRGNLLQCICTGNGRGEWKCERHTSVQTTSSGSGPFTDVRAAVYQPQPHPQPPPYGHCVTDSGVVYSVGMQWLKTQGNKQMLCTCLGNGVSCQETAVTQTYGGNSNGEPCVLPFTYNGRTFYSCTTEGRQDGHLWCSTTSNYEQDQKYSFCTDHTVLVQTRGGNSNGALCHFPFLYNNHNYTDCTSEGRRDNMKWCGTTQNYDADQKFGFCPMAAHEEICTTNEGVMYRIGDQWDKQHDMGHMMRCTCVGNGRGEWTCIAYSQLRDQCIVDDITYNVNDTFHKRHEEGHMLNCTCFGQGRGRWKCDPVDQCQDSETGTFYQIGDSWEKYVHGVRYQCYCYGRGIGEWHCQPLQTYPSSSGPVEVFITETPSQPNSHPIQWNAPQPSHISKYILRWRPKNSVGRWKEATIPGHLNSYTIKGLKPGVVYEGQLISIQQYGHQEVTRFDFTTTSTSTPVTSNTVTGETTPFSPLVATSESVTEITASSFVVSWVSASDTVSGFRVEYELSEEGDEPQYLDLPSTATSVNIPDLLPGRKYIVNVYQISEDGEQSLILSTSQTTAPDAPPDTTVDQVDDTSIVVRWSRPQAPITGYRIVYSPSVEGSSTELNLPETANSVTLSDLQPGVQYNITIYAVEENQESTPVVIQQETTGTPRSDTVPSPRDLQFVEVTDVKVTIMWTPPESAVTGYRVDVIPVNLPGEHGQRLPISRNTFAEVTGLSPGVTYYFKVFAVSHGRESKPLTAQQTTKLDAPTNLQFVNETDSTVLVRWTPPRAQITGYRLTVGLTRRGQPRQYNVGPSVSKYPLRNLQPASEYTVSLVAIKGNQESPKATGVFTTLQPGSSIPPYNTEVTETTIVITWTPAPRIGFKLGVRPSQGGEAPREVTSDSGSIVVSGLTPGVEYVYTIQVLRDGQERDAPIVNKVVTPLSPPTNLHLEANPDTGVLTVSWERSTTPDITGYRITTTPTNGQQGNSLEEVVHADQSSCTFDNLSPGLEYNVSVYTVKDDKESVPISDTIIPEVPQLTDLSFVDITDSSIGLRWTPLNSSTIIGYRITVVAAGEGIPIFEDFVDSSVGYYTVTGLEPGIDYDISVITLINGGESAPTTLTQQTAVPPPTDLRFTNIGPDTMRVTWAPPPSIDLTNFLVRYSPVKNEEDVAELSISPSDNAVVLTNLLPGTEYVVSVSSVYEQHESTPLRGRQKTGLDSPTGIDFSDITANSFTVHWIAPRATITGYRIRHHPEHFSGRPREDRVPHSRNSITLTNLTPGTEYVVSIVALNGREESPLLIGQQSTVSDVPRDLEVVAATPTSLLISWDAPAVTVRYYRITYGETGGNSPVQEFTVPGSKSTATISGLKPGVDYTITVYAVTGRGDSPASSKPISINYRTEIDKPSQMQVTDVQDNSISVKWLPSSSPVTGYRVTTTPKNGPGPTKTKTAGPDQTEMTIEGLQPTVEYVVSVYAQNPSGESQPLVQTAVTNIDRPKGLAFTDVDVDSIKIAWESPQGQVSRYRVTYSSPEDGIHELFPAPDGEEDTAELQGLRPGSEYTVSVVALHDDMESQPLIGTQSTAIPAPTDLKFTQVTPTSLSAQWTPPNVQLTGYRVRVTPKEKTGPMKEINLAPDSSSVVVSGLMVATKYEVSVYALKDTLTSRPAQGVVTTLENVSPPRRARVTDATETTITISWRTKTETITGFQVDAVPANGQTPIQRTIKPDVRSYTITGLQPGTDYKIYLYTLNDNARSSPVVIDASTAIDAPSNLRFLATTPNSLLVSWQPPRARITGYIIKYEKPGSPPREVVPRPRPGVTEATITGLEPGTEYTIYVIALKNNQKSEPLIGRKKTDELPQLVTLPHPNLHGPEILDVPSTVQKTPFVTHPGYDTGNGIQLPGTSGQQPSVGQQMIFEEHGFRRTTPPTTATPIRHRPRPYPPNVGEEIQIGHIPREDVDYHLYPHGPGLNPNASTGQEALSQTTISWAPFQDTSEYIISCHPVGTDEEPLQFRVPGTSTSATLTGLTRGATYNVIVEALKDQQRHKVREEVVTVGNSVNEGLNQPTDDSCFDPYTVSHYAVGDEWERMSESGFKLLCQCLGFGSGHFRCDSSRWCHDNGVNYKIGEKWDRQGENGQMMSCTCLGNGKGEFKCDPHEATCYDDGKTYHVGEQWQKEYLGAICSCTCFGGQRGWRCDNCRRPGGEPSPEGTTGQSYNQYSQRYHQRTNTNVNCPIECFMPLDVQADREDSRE

Assays:
Test in all cases: co-IP; endogenous proteins in MHCC-LM3 and Bel-7402 lysates (NP-40 lysis buffer, PMSF); pre-cleared with Protein A+G Agarose; 2 micrograms primary antibody overnight at 4°C; Protein A+G Agarose 3 hours at 4°C; washed five times with PBS; Western blot
[1] = target: ITGB4 (human (endogenous in MHCC-LM3 and Bel-7402)) (UniProt P16144)
[2] = target: T1, ITGB7 (human (endogenous in MHCC-LM3 and Bel-7402)) (UniProt P26010)
T1 sequence: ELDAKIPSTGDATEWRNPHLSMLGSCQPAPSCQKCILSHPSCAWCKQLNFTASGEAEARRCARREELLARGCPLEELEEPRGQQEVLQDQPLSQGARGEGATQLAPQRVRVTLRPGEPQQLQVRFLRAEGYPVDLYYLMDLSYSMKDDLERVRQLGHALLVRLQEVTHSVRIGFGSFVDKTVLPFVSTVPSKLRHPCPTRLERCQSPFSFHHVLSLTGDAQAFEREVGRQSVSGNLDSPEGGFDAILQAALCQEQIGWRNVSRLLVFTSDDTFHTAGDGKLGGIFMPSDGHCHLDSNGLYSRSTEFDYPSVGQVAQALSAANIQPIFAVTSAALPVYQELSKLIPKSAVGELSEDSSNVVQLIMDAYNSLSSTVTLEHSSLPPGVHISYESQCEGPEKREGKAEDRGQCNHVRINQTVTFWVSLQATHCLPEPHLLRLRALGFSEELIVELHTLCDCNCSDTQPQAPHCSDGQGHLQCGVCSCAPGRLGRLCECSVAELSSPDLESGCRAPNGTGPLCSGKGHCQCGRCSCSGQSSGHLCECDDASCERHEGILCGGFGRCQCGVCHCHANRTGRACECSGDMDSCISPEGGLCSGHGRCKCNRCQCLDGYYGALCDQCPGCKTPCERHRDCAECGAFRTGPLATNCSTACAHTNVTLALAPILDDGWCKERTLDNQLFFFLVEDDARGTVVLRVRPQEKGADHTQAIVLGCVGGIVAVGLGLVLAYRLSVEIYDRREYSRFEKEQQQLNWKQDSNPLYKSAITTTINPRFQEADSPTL

[3] = target: ITGB1 (human (endogenous in MHCC-LM3 and Bel-7402)) (UniProt P05556)

binding [1]	binding [2]	binding [3]	Substance
binds	binds	binds	β-catenin (from UniProt P35222 1-781)
	binds		fibronectin (from UniProt P02751 32-2477)
